Test results taken from patent US20260069728A1, “MULTI-TARGETING COMPOUND AND USE THEREOF” (Chengdu Shetai Medical Technology Co., Ltd., priority 2023, published 2026).
Not every detail of the peptide structures is certain; ends, links or a residue may be inferred.

Key:
[1] = Determination of hydrophilicity/lipophilicity (n-octanol/water distribution coefficient); format: physicochemical; conditions: HEPES buffer pH=7.4 / n-octanol
Description: 10 μL of Purified ^68Ga-SDYD01 was diluted to 500 μL with HEPES buffer (pH=7.4), then 500 μL of n-octanol was added. The mixture was vortexed for 30 min and then centrifuged. Subsequently, 450 μL each of the aqueous and organic phases were taken and centrifuged again. Then, 100 μL each of the aqueous and organic phases were taken, and the radioactivity was measured using a γ counter to calculate the n-octanol/water distribution coefficient (Log Do/w). The measured Log Do/w value for ^68Ga-SDYD01 was −2.54±0.01, and for ^177Lu-SDYD01 was −2.55±0.05.
(§1) 10 μL of purified ^68Ga-SDYD02 was diluted to 500 μL with HEPES buffer (pH=7.4), then 500 μL of n-octanol was added. […] Then, 100 μL each of the aqueous and organic phases were taken, and the radioactivity was measured using a γ counter to calculate the n-octanol/water distribution coefficient (Log Do/w). The measured Log Do/w value for ^68Ga-SDYD02 was −2.47±0.03, and for ^177Lu-SDYD02 was −2.35±0.02.
as §1, with “^68Ga-SDYD05” for “^68Ga-SDYD02”, “−2.37±0.02,” for “−2.47±0.03,”, “^177Lu-SDYD05” for “^177Lu-SDYD02”, “−2.46±0.05. […]” for “−2.35±0.02.”

[2] = Stability of radioligands in PBS buffer (radio-HPLC); format: physicochemical; conditions: PBS buffer pH=7.4, 37° C.
Description: The purpose of this experiment was to test the stability of the radioligands under buffer conditions simulating the physiological environment. This stability is a prerequisite for further animal experiments.
(§2) 1. ^68Ga-SDYD01: ^68Ga-SDYD01 was added to PBS buffer (pH=7.4) and incubated at 37° C. The mixture samples were taken for radio-HPLC analysis after 0.5 hours, 1 hour, and 2 hours of incubation. The stability of ^68Ga-SDYD01 in PBS buffer: the radiochemical purities of ^68Ga-SDYD01 after incubation in PBS for 0.5 hours, 1 hour, and 2 hours were 98%, 97%, and 97%, respectively (FIG. 4).
(§3) 2. ^177Lu-SDYD01: ^177Lu-SDYD01 was added to PBS buffer (pH=7.4) and incubated at 37° C. The mixture samples were taken for radio-HPLC analysis after 24 hours, 48 hours, and 120 hours of incubation. The stability of ^177Lu-SDYD01 in PBS buffer: the radiochemical purities of ^177Lu-SDYD01 after incubation in PBS for 24 hours, 48 hours, and 120 hours were 97%, 96%, and 94%, respectively (FIG. 5).
as §2, with “^68Ga-SDYD02: ^68Ga-SDYD02” for “^68Ga-SDYD01: ^68Ga-SDYD01”, “^68Ga-SDYD02” for “^68Ga-SDYD01”, “96%, 95%” for “98%, 97%,”, “93%,” for “97%,”, “10).” for “4).”
as §3, with “^177Lu-SDYD02: ^177Lu-SDYD02” for “^177Lu-SDYD01: ^177Lu-SDYD01”, “^177Lu-SDYD02” for “^177Lu-SDYD01”, “95%, 91%” for “97%, 96%,”, “87%,” for “94%,”, “11).” for “5).”
as §2, with “1. ^68Ga-SDYD05: ^68Ga-SDYD05” for “1. ^68Ga-SDYD01: ^68Ga-SDYD01”, “of ^68Ga-SDYD05” for “of ^68Ga-SDYD01”, “98%, 96%” for “98%, 97%,”, “and 95%,” for “and 97%,”, “(FIG. 16).” for “(FIG. 4).”
as §3, with “^177Lu-SDYD05: ^177Lu-SDYD05” for “^177Lu-SDYD01: ^177Lu-SDYD01”, “^177Lu-SDYD05” for “^177Lu-SDYD01”, “97%, 96% and” for “97%,”, “96%,” for “96%, and 94%,”, “17).” for “5).”
1. ^68Ga-SDYD06: ^68Ga-SDYD06 was added to PBS buffer (pH=7.4) and incubated at 37° C. The mixture samples were taken for radio-HPLC analysis after 0.5, 1, and 2 hours of incubation. The stability of ^68Ga-SDYD06 in PBS buffer: the radiochemical purities of ^68Ga-SDYD06 after incubation in PBS for 0.5 hours, 1 hour, and 2 hours were 96%, 94% and 93%, respectively (FIG. 22).
2. ^177Lu-SDYD06: ^177Lu-SDYD06 was added to PBS buffer (pH=7.4) and incubated at 37° C. The mixture samples were taken for radio-HPLC analysis after 24 hours, 48 hours, and 120 hours of incubation.
1. ^68Ga-SDYD03: ^68Ga-SDYD03 was added to PBS buffer (pH=7.4) and incubated at 37° C. The mixture samples were taken for radio-HPLC analysis after 0.5 hours, 1 hour, and 2 hours of incubation. The stability of ^68Ga-SDYD03 PBS in PBS buffer: the radiochemical purities of ^68Ga-SDYD03 after incubation in PBS for 0.5 hours, 1 hour, and 2 hours were 96%, 96% and 95%, respectively (FIG. 27).
as §3, with “^177Lu-SDYD03: ^177Lu-SDYD03” for “^177Lu-SDYD01: ^177Lu-SDYD01”, “^177Lu-SDYD03” for “^177Lu-SDYD01”, “are 99%, 96%” for “were 97%, 96%,”, “28). […]” for “5).”

Compound | n-octanol/water distribution coefficient (Log Do/w) [1] | radiochemical purity after incubation in PBS ([2]; 0.5 hours) [%] | radiochemical purity after incubation in PBS ([2]; 1 hour) [%] | radiochemical purity after incubation in PBS ([2]; 2 hours) [%] | radiochemical purity after incubation in PBS ([2]; 24 hours) [%] | radiochemical purity after incubation in PBS ([2]; 48 hours) [%] | radiochemical purity after incubation in PBS ([2]; 120 hours) [%]
CC(C)CC(CC(C)C)NC(=O)[C@H](Cc1cnc[nH]1)NC(=O)CNC(=O)C(NC(=O)[C@H](C)NC(=O)[C@H](Cc1c[nH]c2ccccc12)NC(=O)[C@H](CCC(N)=O)NC(=O)[C@@H](Cc1ccccc1)NC(=O)COCC(=O)Nc1ccc(CNC(=O)COCCOCCNC(=O)COCCOCCNC(=O)[C@H](CCCCNC(=O)CN2CCN(CC(=O)O)CCN(CC(=O)O)CCN(CC(=O)O)CC2)NC(=O)CCC(=O)N2CCN(CCCOc3ccc4nccc(C(=O)NCC(=O)N5CC(F)(F)C[C@H]5C#N)c4c3)CC2)cc1)C(C)C (single isomer, unassigned) [^68Ga-SDYD03, metal not drawn] | −1.72±0.04 | 96 | 96 | 95 | – | – | –
CC(C)CC(CC(C)C)NC(=O)[C@H](Cc1cnc[nH]1)NC(=O)CNC(=O)C(NC(=O)[C@H](C)NC(=O)[C@H](Cc1c[nH]c2ccccc12)NC(=O)[C@H](CCC(N)=O)NC(=O)[C@@H](Cc1ccccc1)NC(=O)COCC(=O)Nc1ccc(CNC(=O)COCCOCCNC(=O)COCCOCCNC(=O)[C@H](CCCCNC(=O)CN2CCN(CC(=O)O)CCN(CC(=O)O)CCN(CC(=O)O)CC2)NC(=O)CCC(=O)N2CCN(CCCOc3ccc4nccc(C(=O)NCC(=O)N5CC(F)(F)C[C@H]5C#N)c4c3)CC2)cc1)C(C)C (single isomer, unassigned) [^177Lu-SDYD03, metal not drawn] | −1.52±0.05 | – | – | – | 99 | 96 | 94
